In US20250333486A1, “Anti-HSP90 alpha antibody and uses thereof” (NATIONAL HEALTH RESEARCH INSTITUTES, priority 2021, published 2025):
No constants are given. Whether binding was seen depends on the method and setting. Some binding calls cover weakened binding; strength is not graded here. Tags and fused reporters may be left off the sequences shown.

Key:
[1] = molecular target: recombinant 732-amino acid full-length human HSP90α (rHSP90α; PeproTech) (human) (UniProt P07900); assay: summary sentence of the example; method not given
[2] = molecular target: recombinant 732-amino acid full-length human HSP90α (rHSP90α; PeproTech) (human) (UniProt P07900); assay: SPR, Biacore T200: antibody captured on Protein A chip, rHSP90α injected [a]
[3] = molecular target: T1, HSP90α peptide 251…260 (human); assay: alanine-scanning peptide ELISA [d]
T1 sequence (peptide): ESEDKPEIED

[4] = molecular target: T2, HSP90α peptide 235…244 (human); assay: alanine-scanning peptide ELISA [d]
T2 sequence (peptide): AEEKEDKEEE

[5] = molecular target: T3, …; assay: peptide-scanning ELISA on plates coated with 10-a.a. peptides [c]
T3 sequence (peptide): EDKPEIEDVG

[6] = molecular target: T4, …; assay: as above; remark: listed apart in the source
T4 sequence (peptide): EKESEDKPEI

[7] = molecular target: T5, …; assay: as above; remark: listed apart in the source
T5 sequence (peptide): DEAEEKEDKE

[8] = molecular target: T6, …; assay: as above; remark: listed apart in the source
T6 sequence (peptide): KEEKESEDKP

[9] = molecular target: T1, HSP90α peptide 251…260 (human); assay: as above
[10] = molecular target: T2, HSP90α peptide 235…244 (human); assay: as above
[11] = molecular target: T1, HSP90α peptide 251…260 (human); assay: peptide scanning ELISA, plates coated with 10-a.a. peptides
[12] = molecular target: T2, HSP90α peptide 235…244 (human); assay: as above

Measured: binding

B1: HH01 anti-HSP90α antibody (Clone-2-hA) (antibody, V domains shown)
VH: EVQLVESGGGLVQPGGSLRLSCAASGFTFKTYAMNWVRQAPGQGLEWVARIRSKSRNYATYYADSVKDRFTISRDDSKNQFYLQMNNLRTEDTAVYYCVVGGSGFDYWGQGTTLTVSS
VL: DVVMTQTPLSLPVSLGDQASISCRSSQSIVHSNGNTYLEWYLQKPGQSPQLLIYKVSNRFSGVPDRFSGSGSGTDFTLTISSVEAEDLGVYYCFQGSHVPWTFGGGTKLEIK
binds: [1] | [2] | [3] | [4] | [5] | [6] | [7] | [8] | [9] | [10] | [11] | [12]
